From article PMC8384837
The list shows a part of the results.

What follows are sequences tested against T1, PUM1 PUF domain R6-SWD R7-NPG N1043S + Y1044W + Q1047D + S1079N + N1080P + E1083G (Homo sapiens) (UniProt Q14671). Details: yeast three-hybrid, YBZ-1, SC-Leu-His + 0.5 mM 3-AT, 4 days.
T1 sequence: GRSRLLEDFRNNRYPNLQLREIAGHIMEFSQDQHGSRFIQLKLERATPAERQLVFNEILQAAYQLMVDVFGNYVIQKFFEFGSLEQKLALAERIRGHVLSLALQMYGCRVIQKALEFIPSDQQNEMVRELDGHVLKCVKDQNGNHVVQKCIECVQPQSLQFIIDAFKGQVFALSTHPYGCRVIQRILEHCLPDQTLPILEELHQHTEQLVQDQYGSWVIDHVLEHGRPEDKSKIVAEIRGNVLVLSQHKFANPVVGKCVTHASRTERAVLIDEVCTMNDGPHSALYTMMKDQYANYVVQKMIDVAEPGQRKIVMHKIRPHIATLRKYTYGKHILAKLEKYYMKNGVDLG

Row | Sequence | binding signal (log2 enrichment (interaction score))
1 | GGCUAGAACUAGUGGAUCCCCCGGCGCCCGGCGGCUCGAGCCCGGGUAAGUUAGAUUCGUCUGCAUGCCGCCGGGCGCCAUGCCUGCAGGUCGACUCUAGAAAACAUG | -1.35
2 | GGCUAGAACUAGUGGAUCCCCCGGCGCCCGGCGGCUCGAGCCCGGGUAAGGUCAAAAUGUCUGCAUGCCGCCGGGCGCCAUGCCUGCAGGUCGACUCUAGAAAACAUG | -1.63
3 | GGCUAGAACUAGUGGAUCCCCCGGCGCCCGGCGGCUCGAGCCCGGGUAAGUCGAAGCUGUCUGCAUGCCGCCGGGCGCCAUGCCUGCAGGUCGACUCUAGAAAACAUG | -1.05
4 | GGCUAGAACUAGUGGAUCCCCCGGCGCCCGGCGGCUCGAGCCCGGGUAAGGCUUAACGGUCUGCAUGCCGCCGGGCGCCAUGCCUGCAGGUCGACUCUAGAAAACAUG | -0.47
5 | GGCUAGAACUAGUGGAUCCCCCGGCGCCCGGCGGCUCGAGCCCGGGUAAGUUCAGACAGUCUGCAUGCCGCCGGGCGCCAUGCCUGCAGGUCGACUCUAGAAAACAUG | -1.34
6 | GGCUAGAACUAGUGGAUCCCCCGGCGCCCGGCGGCUCGAGCCCGGGUAAGUUGAUAAGGUCUGCAUGCCGCCGGGCGCCAUGCCUGCAGGUCGACUCUAGAAAACAUG | -1.88
7 | GGCUAGAACUAGUGGAUCCCCCGGCGCCCGGCGGCUCGAGCCCGGGUAAGUCAUAAGCGUCUGCAUGCCGCCGGGCGCCAUGCCUGCAGGUCGACUCUAGAAAACAUG | -1.35
8 | GGCUAGAACUAGUGGAUCCCCCGGCGCCCGGCGGCUCGAGCCCGGGUAAGGUAAAACAGUCUGCAUGCCGCCGGGCGCCAUGCCUGCAGGUCGACUCUAGAAAACAUG | -0.57

2 entries picked at random from those above:
Row | Sequence | binding signal (log2 enrichment (interaction score))
5 | GGCUAGAACUAGUGGAUCCCCCGGCGCCCGGCGGCUCGAGCCCGGGUAAGUUCAGACAGUCUGCAUGCCGCCGGGCGCCAUGCCUGCAGGUCGACUCUAGAAAACAUG | -1.34
6 | GGCUAGAACUAGUGGAUCCCCCGGCGCCCGGCGGCUCGAGCCCGGGUAAGUUGAUAAGGUCUGCAUGCCGCCGGGCGCCAUGCCUGCAGGUCGACUCUAGAAAACAUG | -1.88
